No constants are given. Whether binding was seen depends on the method and setting. Binding seen in cells or lysates may run through a third protein. Some results given as binding are weak or reduced against the parent protein; the word gives no strength.
Biological target: FLAG-tagged wild type human IDO1 expressed in HEK293T cells (human) (UniProt P14902)
Assay: co-IP; anti-FLAG IP of HEK293T cell supernatants (1 mg), protein G agarose, blot with anti-GAPDH; 50 mM Tris-HCl pH 7.4, 0.1% Triton X-100, 100 mM NaCl; in part of the experiments after siRNA knock-down of native GAPDH and rescue with HA-GAPDH

By UniProt entry, the sequences of proteins in these tests, tags left out.
UniProt P14902: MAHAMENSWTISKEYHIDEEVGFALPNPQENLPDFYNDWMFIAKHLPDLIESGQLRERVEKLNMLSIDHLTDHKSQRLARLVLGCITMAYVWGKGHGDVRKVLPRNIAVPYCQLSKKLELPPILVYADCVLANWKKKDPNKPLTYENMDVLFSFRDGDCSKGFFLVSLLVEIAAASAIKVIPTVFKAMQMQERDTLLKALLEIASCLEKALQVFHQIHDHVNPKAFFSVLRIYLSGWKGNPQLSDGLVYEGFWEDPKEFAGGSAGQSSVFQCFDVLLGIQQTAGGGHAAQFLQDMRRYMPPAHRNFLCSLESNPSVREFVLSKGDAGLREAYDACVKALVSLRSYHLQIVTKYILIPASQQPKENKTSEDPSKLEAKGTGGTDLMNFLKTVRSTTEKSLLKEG
UniProt P04406: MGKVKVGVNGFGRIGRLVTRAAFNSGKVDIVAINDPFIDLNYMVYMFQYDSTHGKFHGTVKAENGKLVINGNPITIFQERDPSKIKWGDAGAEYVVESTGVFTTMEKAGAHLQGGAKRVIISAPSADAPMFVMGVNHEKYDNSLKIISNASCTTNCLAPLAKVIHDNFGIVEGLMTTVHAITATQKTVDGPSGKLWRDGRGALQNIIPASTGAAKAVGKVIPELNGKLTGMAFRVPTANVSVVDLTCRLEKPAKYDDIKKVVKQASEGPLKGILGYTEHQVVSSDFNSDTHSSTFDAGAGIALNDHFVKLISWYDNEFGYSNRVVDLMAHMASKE

- binding: binds
Substance: GAPDH of HEK293T cells (native) (from UniProt P04406 1-335) (enzyme)

From paper PMC12329532
